According to patent US20250188184A1:
These are yes or no findings as the source states them, for the method shown. Binding calls can cover weak binding; strength is not graded here.

Tests used:
[1] = molecular target: CD3 epsilon on HEK293T cells (membrane protein array) (Homo sapiens (Human)); experiment: immunofluorescence FACS on HEK293T cells expressing membrane proteins
[2] = molecular target: CD3 complex on HEK293T cells (membrane protein array); experiment: as above

B1: AMX-500-P7 (AC3934) (bispecific antibody)
chain: ASSATPESGPGTSTEPSEGSAPGTSESATPESGPGSGPGTSESATPGTSESATPESGPGSEPATSGSETPGTSESATPESGPGTSTEPSEGSAPGSPAGSPTSTEEGTSESATPESGPGSEPATSGSETPGTSESATPESGPGSPAGSPTSTEEGSPAGSPTSTEEGTSTEPSEGSAPGTSESATPESGPGTSESATPESGPGTSESATPESGPGSEPATSGSETPGSEPATSGSETPGSPAGSPTSTEEGTSTEPSEGSAPGTSTEPSEGSAPGSEPATSGSETPGTSESATPEAGRSASHTPAGLTGPGTSESATPESQVQLVESGGGVVQPGRSLRLSCAASGRTFGIYVWGWVRQAPGKEREFVGAISWSGSNRKVSDSVKGRFTISRDNSKNTLYLQMNSLRAEDTAVYYCAASNKLYGRTWYDFNESDYWGQGTQVTVSSGGGGSGGGSELVVTQEPSLTVSPGGTVTLTCRSSNGAVTSSNYANWVQQKPGQAPRGLIGGTNKRAPGTPARFSGSLLGGKAALTLSGVQPEDEAVYYCALWYPNLWVFGGGTKLTVLSESATPESGPGTSPGATPESGPGTSESATPEVQLVESGGGIVQPGGSLRLSCAASGFTFSTYAMNWVRQAPGKGLEWVGRIRTKRNNYATYYADSVKGRFTISRDDSKNTVYLQMNSLKTEDTAVYYCVRHENFGNSYVSWFAHWGQGTLVTVSSGTATPESGPGEAGRSASHTPAGLTGPATPESGPGTSESATPESGPGSPAGSPTSTEEGTSESATPESGPGSEPATSGSETPGTSESATPESGPGTSTEPSEGSAPGTSTEPSEGSAPGTSTEPSEGSAPGTSTEPSEGSAPGTSTEPSEGSAPGTSTEPSEGSAPGSPAGSPTSTEEGTSTEPSEGSAPGTSESATPESGPGSEPATSGSETPGTSESATPESGPGSEPATSGSETPGTSESATPESGPGTSTEPSEGSAPGTSESATPESGPGSPAGSPTSTEEGSPAGSPTSTEEGSPAGSPTSTEEGTSESATPESGPGTSTEPSEGSAPGTSESATPESGPGSEPATSGSETPGTSESATPESGPGSEPATSGSETPGTSESATPESGPGTSTEPSEGSAPGSPAGSPTSTEEGTSESATPESGPGSEPATSGSETPGTSESATPESGPGSPAGSPTSTEEGSPAGSPTSTEEGTSTEPSEGSAPGTSESATPESGPGTSESATPESGPGTSPSATPESGPGSEPATSGSETPGSEPATSGSETPGSPAGSPTSTEEGTSTEPSEGSAPGTSTEPSEGSAPGSEPATSGSETPGTSESAGEPEA
binding [1]: binds
binding [2]: binds
